{"source": "patent US20190105337A1", "about": "“METHODS OF TREATING BACTERIAL INFECTIONS” (priority 2015, published 2019)", "system": "P. aeruginosa strains", "test": "MIC by broth microdilution (CLSI), P. aeruginosa strains", "format": "cell-based, Pseudomonas aeruginosa", "conditions": "P. aeruginosa strains used", "note": "Some entries share one result that the patent states for a list of compounds."}
{"compound": "C[C@@H](O)[C@H]1C(=O)N2C(C(=O)O)=C(S[C@@H]3CN[C@H](C(=O)N(C)C)C3)[C@H](C)[C@H]12", "note": "[meropenem, Meropenem]", "values": [{"measurement": "MIC (range)", "value": "2 to 8", "unit": "µg/mL"}]}
